{"source": "PubChem BioAssay AID1224826 (NIAID, 2016)", "purpose": "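Regulators of Tlr4 signalling leading to Tnf-alpha expression in macrophages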 (primary screen)", "cells": "RAW264.7 G9 macrophages from mouse bearing reporters for p65 (GFP) and the Tnf promoter (mCherry)", "reagent": "siRNA pool against mouse genes, 100 nM", "duration": "16 h of LPS stimulation, after 2 days of siRNA transfection", "challenge": "bacterial lipopolysaccharide (Salmonella minnesota R595), 10 ng/ml", "detection": "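Nuclear mCherry signal of the Tnf promoter reporter measured by imaging after background removal, scaled to each plate median and turned into robust z-scores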", "reading the numbers": "Tnf reporter robust z-score: higher = stronger Tnf promoter reporter signal after LPS", "rule for the call": "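Called active when robust z-score is at most -1.3, matching the median of the Tlr4 knock-down control, or over 3; control wells and wells with under 50 cells never active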", "calls": "active = Tnf reporter clearly lowered or raised; inactive = no clear change in Tnf reporter", "note": "The whole screen tested about 17,000 reagents; this is a part drawn at random. About 1,110 of all reagents (6.6%) were called active. 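Active means lowered or raised reporter signal; replicate intensities are raw and not normalised per plate.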 Not all columns of the deposit are shown."}
The first 2 entries as a preview:
{"Gene": "Lce1a2", "Tnf reporter robust z-score": 0.51, "fewer than 50 cells in well": "enough cells in well", "outcome": "inactive"}
{"Gene": "Cort", "Tnf reporter robust z-score": 1.77, "fewer than 50 cells in well": "enough cells in well", "outcome": "inactive"}

The listing, from the first entry:
{"Gene": "Lce1a2", "Tnf reporter robust z-score": 0.51, "fewer than 50 cells in well": "enough cells in well", "outcome": "inactive"}
{"Gene": "Cort", "Tnf reporter robust z-score": 1.77, "fewer than 50 cells in well": "enough cells in well", "outcome": "inactive"}
{"Gene": "Bst1", "Tnf reporter robust z-score": -0.46, "fewer than 50 cells in well": "enough cells in well", "outcome": "inactive"}
{"Gene": "A130079P16Rik (retired record)", "fewer than 50 cells in well": "fewer than 50 cells per well; well left out of calls", "outcome": "inactive"}
{"Gene": "Cdk5r2", "Tnf reporter robust z-score": 0.67, "fewer than 50 cells in well": "enough cells in well", "outcome": "inactive"}
{"Gene": "Ear3", "Tnf reporter robust z-score": -0.28, "fewer than 50 cells in well": "enough cells in well", "outcome": "inactive"}
{"Gene": "Angptl4", "Tnf reporter robust z-score": -0.06, "fewer than 50 cells in well": "enough cells in well", "outcome": "inactive"}
{"Gene": "Gpx8", "fewer than 50 cells in well": "fewer than 50 cells per well; well left out of calls", "outcome": "inactive"}
{"Gene": "Gga1", "Tnf reporter robust z-score": -0.97, "fewer than 50 cells in well": "enough cells in well", "outcome": "inactive"}
{"Gene": "Ptgr2", "fewer than 50 cells in well": "fewer than 50 cells per well; well left out of calls", "outcome": "inactive"}
{"Gene": "Acot13", "Tnf reporter robust z-score": 0.74, "fewer than 50 cells in well": "enough cells in well", "outcome": "inactive"}
{"Gene": "Or8b101", "Tnf reporter robust z-score": 3.02, "fewer than 50 cells in well": "enough cells in well", "outcome": "active"}
{"Gene": "Lamtor3", "fewer than 50 cells in well": "fewer than 50 cells per well; well left out of calls", "outcome": "inactive"}
{"Gene": "Dpys", "Tnf reporter robust z-score": 0.15, "fewer than 50 cells in well": "enough cells in well", "outcome": "inactive"}
{"Gene": "Ints9", "Tnf reporter robust z-score": 0.27, "fewer than 50 cells in well": "enough cells in well", "outcome": "inactive"}
{"Gene": "Pld4", "Tnf reporter robust z-score": 0.28, "fewer than 50 cells in well": "enough cells in well", "outcome": "inactive"}
{"Gene": "A730027B03Rik (retired record)", "Tnf reporter robust z-score": 0.47, "fewer than 50 cells in well": "enough cells in well", "outcome": "inactive"}
{"Gene": "Trnt1", "Tnf reporter robust z-score": -1.24, "fewer than 50 cells in well": "enough cells in well", "outcome": "inactive"}
{"Gene": "Rtn4", "Tnf reporter robust z-score": -0.56, "fewer than 50 cells in well": "enough cells in well", "outcome": "inactive"}
{"Gene": "Hspb7", "Tnf reporter robust z-score": 0.26, "fewer than 50 cells in well": "enough cells in well", "outcome": "inactive"}
{"Gene": "Gnptg", "Tnf reporter robust z-score": -1.22, "fewer than 50 cells in well": "enough cells in well", "outcome": "inactive"}
